Results published in the supplement of paper PMC11732987, “Enantioselective OTUD7B fragment discovery through chemoproteomics screening and high-throughput optimisation” (Communications Chemistry, 2025).
This is one part of the list. The data scatter; read single values as rough.

Protein sequences, listed by entry. Tags and fused reporters are not part of them. Lines headed by an entry give the natural chain unless they say otherwise; changes in a name come on top. Residues count along the entry.
UniProt Q53T94, 181-201: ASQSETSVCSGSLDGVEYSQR
UniProt Q93075: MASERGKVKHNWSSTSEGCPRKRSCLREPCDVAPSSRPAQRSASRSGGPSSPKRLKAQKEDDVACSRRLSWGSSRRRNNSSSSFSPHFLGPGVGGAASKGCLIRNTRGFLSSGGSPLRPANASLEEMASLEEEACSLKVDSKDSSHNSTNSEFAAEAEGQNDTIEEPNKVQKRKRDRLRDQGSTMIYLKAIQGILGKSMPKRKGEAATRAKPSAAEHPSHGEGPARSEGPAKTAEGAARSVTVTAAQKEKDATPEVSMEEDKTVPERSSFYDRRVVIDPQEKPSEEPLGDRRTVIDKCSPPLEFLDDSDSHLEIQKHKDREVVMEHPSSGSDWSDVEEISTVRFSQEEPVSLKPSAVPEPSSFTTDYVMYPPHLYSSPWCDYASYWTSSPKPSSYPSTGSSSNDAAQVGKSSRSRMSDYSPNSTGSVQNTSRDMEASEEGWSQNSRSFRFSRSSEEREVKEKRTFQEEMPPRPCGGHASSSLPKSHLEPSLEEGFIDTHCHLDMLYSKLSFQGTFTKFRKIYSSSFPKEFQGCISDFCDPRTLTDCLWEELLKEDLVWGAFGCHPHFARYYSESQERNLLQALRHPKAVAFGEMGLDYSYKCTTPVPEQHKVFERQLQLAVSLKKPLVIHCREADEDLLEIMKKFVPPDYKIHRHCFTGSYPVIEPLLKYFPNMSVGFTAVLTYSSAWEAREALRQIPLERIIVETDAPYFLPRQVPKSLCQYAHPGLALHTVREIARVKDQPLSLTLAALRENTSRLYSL
UniProt O75478: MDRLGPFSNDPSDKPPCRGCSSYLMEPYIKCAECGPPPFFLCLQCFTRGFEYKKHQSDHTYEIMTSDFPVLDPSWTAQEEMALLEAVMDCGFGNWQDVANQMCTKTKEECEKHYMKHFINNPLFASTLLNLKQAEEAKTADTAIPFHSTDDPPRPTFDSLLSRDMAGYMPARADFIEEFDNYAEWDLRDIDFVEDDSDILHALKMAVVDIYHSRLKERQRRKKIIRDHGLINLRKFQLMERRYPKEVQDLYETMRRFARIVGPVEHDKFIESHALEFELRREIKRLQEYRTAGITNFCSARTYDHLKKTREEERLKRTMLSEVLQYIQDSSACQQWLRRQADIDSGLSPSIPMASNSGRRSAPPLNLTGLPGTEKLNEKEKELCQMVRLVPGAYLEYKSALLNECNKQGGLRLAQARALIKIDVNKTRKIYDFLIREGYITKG
UniProt Q12788: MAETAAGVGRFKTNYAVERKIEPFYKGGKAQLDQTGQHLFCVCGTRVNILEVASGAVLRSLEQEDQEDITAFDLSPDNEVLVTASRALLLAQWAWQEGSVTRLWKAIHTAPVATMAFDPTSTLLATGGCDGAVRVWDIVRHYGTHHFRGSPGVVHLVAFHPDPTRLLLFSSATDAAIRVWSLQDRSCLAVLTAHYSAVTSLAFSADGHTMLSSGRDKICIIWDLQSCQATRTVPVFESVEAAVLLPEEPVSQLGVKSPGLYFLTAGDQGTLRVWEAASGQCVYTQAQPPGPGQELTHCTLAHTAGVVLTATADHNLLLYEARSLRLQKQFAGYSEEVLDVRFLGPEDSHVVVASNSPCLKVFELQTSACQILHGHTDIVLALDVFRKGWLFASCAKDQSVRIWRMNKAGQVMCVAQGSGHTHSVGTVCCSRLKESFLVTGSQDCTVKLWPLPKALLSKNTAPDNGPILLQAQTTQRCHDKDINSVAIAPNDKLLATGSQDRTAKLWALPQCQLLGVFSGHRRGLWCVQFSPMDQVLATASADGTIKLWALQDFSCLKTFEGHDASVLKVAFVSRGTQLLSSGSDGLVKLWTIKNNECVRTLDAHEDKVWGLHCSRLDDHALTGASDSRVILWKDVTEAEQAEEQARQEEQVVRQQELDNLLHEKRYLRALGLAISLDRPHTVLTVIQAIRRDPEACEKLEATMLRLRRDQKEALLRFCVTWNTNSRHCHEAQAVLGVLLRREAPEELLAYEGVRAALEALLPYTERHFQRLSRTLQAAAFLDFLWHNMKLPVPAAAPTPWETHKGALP
UniProt Q9UGU0: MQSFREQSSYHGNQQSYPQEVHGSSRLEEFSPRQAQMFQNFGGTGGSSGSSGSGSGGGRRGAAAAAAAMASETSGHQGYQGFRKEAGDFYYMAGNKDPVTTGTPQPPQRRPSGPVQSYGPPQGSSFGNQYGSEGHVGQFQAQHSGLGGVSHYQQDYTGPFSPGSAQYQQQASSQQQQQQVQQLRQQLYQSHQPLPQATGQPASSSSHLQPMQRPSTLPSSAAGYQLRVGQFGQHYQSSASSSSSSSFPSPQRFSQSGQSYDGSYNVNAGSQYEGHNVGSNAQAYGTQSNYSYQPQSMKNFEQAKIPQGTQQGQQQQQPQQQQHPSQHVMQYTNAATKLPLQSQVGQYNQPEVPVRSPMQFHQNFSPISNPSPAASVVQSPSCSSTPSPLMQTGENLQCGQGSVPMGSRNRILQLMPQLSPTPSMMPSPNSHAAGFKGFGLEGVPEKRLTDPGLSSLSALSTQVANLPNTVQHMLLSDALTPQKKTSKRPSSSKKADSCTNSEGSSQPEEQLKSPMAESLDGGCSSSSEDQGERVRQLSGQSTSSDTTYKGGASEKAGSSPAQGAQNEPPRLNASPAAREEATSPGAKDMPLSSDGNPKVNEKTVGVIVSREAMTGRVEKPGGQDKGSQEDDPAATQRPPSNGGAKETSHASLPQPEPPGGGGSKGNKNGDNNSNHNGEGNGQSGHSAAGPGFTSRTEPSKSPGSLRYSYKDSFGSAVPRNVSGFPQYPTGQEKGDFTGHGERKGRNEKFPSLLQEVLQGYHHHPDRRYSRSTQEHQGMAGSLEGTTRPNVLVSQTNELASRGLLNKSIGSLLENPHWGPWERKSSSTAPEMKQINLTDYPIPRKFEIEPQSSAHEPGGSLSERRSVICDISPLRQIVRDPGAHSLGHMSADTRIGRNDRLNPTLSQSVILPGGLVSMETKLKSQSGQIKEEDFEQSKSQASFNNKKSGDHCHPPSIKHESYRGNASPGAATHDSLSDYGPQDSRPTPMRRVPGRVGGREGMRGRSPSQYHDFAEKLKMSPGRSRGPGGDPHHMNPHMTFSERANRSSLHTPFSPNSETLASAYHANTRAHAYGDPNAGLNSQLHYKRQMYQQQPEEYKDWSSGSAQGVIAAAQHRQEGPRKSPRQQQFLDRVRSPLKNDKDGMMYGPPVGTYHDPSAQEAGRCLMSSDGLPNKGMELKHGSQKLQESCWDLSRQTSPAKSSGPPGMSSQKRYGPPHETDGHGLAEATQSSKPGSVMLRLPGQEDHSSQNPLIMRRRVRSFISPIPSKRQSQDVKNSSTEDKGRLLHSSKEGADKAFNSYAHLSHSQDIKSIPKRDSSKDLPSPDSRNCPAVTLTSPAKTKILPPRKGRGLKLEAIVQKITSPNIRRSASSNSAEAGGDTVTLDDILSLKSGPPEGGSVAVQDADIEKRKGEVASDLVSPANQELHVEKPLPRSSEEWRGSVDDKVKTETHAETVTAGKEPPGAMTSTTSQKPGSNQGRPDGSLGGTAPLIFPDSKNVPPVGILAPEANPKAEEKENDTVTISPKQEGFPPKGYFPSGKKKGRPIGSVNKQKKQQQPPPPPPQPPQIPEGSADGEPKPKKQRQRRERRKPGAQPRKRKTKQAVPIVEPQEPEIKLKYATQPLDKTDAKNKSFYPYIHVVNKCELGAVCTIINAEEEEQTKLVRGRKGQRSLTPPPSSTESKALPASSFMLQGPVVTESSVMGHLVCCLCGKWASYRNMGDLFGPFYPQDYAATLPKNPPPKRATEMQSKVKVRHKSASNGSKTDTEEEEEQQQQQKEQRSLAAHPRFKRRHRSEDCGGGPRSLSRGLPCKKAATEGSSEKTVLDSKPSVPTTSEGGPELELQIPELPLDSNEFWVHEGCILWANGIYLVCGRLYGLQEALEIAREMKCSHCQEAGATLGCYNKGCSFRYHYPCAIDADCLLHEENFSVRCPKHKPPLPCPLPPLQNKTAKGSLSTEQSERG
UniProt Q5VWN6: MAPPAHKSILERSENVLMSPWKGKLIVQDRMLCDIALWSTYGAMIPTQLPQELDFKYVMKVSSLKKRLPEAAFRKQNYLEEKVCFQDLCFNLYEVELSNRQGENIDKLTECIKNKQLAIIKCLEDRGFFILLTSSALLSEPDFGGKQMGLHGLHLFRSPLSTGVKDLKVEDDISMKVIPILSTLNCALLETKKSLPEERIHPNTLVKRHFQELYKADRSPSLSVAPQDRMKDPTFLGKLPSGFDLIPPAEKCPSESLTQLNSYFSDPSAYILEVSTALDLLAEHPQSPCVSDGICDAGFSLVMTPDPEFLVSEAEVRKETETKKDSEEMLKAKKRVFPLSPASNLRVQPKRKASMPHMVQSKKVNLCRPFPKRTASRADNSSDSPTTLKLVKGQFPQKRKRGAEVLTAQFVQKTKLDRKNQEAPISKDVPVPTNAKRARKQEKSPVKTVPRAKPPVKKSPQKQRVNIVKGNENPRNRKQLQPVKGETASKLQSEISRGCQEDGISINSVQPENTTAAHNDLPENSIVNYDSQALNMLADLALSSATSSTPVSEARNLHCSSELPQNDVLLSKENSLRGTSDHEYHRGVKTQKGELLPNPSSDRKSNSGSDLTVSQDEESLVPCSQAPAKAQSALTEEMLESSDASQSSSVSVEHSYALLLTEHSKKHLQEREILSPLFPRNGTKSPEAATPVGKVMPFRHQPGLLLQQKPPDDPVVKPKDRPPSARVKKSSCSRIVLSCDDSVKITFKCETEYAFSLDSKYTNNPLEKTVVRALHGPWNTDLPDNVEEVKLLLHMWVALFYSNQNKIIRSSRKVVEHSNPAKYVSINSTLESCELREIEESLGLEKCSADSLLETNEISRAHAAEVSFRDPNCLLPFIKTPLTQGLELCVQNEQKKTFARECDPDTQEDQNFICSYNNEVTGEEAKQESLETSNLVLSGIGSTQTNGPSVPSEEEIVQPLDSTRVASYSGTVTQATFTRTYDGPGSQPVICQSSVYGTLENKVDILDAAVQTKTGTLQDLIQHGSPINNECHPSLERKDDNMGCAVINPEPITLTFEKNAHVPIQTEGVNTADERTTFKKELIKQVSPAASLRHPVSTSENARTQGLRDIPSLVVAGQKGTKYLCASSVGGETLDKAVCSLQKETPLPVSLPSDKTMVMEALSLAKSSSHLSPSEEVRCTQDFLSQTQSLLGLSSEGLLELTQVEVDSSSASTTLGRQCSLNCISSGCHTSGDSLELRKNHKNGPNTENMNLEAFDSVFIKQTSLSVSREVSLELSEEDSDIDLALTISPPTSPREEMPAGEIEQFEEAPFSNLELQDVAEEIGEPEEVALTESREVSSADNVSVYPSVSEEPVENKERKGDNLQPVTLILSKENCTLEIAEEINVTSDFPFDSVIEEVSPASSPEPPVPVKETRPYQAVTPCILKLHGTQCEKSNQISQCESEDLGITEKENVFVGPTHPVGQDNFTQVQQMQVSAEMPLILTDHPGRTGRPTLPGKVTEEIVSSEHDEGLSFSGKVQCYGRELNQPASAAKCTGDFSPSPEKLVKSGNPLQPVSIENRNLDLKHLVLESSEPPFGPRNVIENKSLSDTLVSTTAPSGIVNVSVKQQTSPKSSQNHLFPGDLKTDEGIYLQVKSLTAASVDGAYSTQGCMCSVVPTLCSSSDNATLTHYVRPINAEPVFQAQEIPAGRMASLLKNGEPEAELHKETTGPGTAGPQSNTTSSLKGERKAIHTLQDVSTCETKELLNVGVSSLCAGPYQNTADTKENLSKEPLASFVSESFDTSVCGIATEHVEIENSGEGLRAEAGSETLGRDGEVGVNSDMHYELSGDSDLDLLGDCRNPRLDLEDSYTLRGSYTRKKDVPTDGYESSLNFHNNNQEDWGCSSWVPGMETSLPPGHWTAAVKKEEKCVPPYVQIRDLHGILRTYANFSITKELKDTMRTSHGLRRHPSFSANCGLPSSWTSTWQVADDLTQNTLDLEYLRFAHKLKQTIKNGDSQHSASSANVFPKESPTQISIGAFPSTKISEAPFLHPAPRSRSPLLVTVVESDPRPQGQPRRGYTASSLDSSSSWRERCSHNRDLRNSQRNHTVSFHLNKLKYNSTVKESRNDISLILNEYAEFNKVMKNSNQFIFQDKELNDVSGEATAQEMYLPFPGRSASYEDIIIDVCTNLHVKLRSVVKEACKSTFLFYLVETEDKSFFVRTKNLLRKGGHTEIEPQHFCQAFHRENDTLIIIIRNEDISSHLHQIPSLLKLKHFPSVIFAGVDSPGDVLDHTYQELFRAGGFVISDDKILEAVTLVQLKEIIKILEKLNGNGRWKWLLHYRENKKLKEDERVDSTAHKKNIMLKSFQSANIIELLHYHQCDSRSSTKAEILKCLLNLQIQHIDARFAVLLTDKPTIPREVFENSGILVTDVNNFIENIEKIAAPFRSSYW

compound: ClCC(=O)N[C@@H]1CCCc2ccccc12; experiment: log2 mean competition ratio of IA-DTB cysteine labelling (DMSO/compound) (log2 ratio); higher = stronger cysteine engagement by compound; settings: 50 µM; treatment time: 4 h; cell line lysate: HEK293T
Protocol: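 IA-DTB competitive cysteine chemoproteomics in HEK293T RIPA lysate. Lysates were treated with compound 29 or 30 at 50 or 200 µM for 4 h, then IA-DTB (500 µM, 1 h), trypsin-digested, NeutrAvidin-enriched and analysed by diaPASEF. Competition ratio = intensity DMSO / intensity compound (n=4 treated, n=64 DMSO); binding: mean log2 CR ≥ 1 and p ≤ 0.05 plus QC filters. Target is the cysteine site.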

Target	log2 mean competition ratio
TBCE C371 (UniProt Q15813)	-0.0325
TBP C221 (UniProt P20226)	0.0552
TAF1B C189 (UniProt Q53T94)	0.0816
TATDN2 C19 (UniProt Q93075)	0.159
TADA2A C384 (UniProt O75478)	0.0498
TACC1 C78 (UniProt O75410)	-0.048
TET2 C1811 (UniProt Q6N021)	0.171
TASP1 C351 (UniProt Q9H6P5)	0.102
TBC1D1 C336 (UniProt Q86TI0)	0.221
TBL3 C477 (UniProt Q12788)	0.286
TBC1D15 C184 (UniProt Q8TC07)	0.349
TANC1 C557 (UniProt Q9C0D5)	-0.114
TCF20 C868 (UniProt Q9UGU0)	-0.128
TELO2 C518 (UniProt Q9Y4R8)	0.026
THAP12 C644 (UniProt O43422)	0.119
TASOR2 C1125 (UniProt Q5VWN6)	-0.0999
TACC2 C2859 (UniProt O95359)	0.256
TET1 C1881 (UniProt Q8NFU7)	0.0258
THNSL1 C277 (UniProt Q8IYQ7)	-0.0348
TCF20 C498 (UniProt Q9UGU0)	0.301

same assay, conditions: 200 µM; treatment time: 4 h; cell line lysate: HEK293T

Target	log2 mean competition ratio
TBCE C371 (UniProt Q15813)	-0.262
TBP C221 (UniProt P20226)	0.0886
TAF1B C189 (UniProt Q53T94)	0.0331
TATDN2 C19 (UniProt Q93075)	0.256
TADA2A C384 (UniProt O75478)	0.247
TACC1 C78 (UniProt O75410)	-0.0343
TET2 C1811 (UniProt Q6N021)	0.0948
TASP1 C351 (UniProt Q9H6P5)	-0.0409
TBC1D1 C336 (UniProt Q86TI0)	0.326
TBL3 C477 (UniProt Q12788)	-0.339
TBC1D15 C184 (UniProt Q8TC07)	0.144
TANC1 C557 (UniProt Q9C0D5)	-0.193
TCF20 C868 (UniProt Q9UGU0)	0.154
TELO2 C518 (UniProt Q9Y4R8)	-0.209
THAP12 C644 (UniProt O43422)	0.15
TASOR2 C1125 (UniProt Q5VWN6)	0.114
TACC2 C2859 (UniProt O95359)	0.123
TET1 C1881 (UniProt Q8NFU7)	-0.0136
THNSL1 C277 (UniProt Q8IYQ7)	0.098
TCF20 C498 (UniProt Q9UGU0)	-0.172
